PubChem BioAssay AID743456 | Peter MacCallum Cancer Centre | 2014
Shown is a random part of 878 reagents. 27 of them (3.1%) were called active. 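27 mimics are marked active, unlike an earlier stated count of 24; the viability threshold is described inconsistently.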 Not all columns of the deposit are shown. The record does not give: the amount of reagent.

- Purpose: 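Identify miRNAs tied to vorinostat resistance or sensitivity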 (primary screen)
- Cells: human HCT116-VR colon cancer cells, a vorinostat-resistant HCT116 line
- Reagent: miRNA mimic
- Time to read-out: about 3 days from transfection to readout; drug present for the last 24 h
- Treatment: vorinostat at 2.5 µM final for 24 h
- Measurement: 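Per-well live-cell protease fluorescence and caspase luminescence under 2.5 µM vorinostat for 24 h, scored as robust z-scores and against mock transfection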
- Reading the numbers: viability robust z-score: higher = more viable cells; caspase robust z-score: higher = more caspase activity, more apoptosis
- Call rule: 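Active when viability drops or caspase activity climbs beyond robust z thresholds, with wells of poor cell health excluded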

miRNA | PubChem SID | viability robust z-score | caspase robust z-score | viability hit class | caspase hit class | Call
hsa-miR-99b | SID160648017 | 0.82 | 0.68 | no change | no change | inactive
hsa-miR-544 | SID160648185 | -1.18 | 0.94 | no change | no change | inactive
hsa-miR-148b* | SID160648401 | -2.27 | 2.77 | no change | no change | inactive
hsa-miR-877 | SID160648574 | -0.32 | -0.04 | no change | no change | inactive
hsa-miR-1224-5p | SID160648572 | 0.15 | -0.65 | no change | no change | inactive
hsa-miR-181a-2* | SID160648504 | -0.26 | 0.16 | no change | no change | inactive
hsa-miR-374b* | SID160648548 | -0.53 | 0.31 | no change | no change | inactive
hsa-miR-541* | SID160648530 | 1.06 | -0.62 | no change | no change | inactive
hsa-miR-891a | SID160648514 | 0.92 | 0.12 | no change | no change | inactive
hsa-miR-1243 | SID160648647 | -1.29 | 3.06 | no change | no change | inactive
hsa-miR-499-3p | SID160648413 | -0.32 | 2.04 | no change | no change | inactive
hsa-miR-18b* | SID160648489 | 0.45 | 0.03 | no change | no change | inactive
hsa-miR-509-5p | SID160648469 | -0.62 | 3.21 | no change | no change | inactive
hsa-miR-362-3p | SID160648496 | 0.28 | 1 | no change | no change | inactive
hsa-miR-1302 | SID160648643 | -0.26 | -0.14 | no change | no change | inactive
hsa-let-7c* | SID160648333 | 0.58 | -0.71 | no change | no change | inactive
hsa-miR-1227 | SID160648580 | -1.34 | 5.32 | no change | caspase activation | active
hsa-miR-135b | SID160648059 | -0.2 | -0.73 | no change | no change | inactive
hsa-miR-770-5p | SID160648330 | 1.38 | -0.43 | no change | no change | inactive
hsa-miR-215 | SID160647945 | -1.14 | 1.25 | no change | no change | inactive

Reagents listed above marked active, once more:
miRNA | PubChem SID | viability robust z-score | caspase robust z-score | viability hit class | caspase hit class | Call
hsa-miR-1227 | SID160648580 | -1.34 | 5.32 | no change | caspase activation | active

The results go on:
miRNA | PubChem SID | viability robust z-score | caspase robust z-score | viability hit class | caspase hit class | Call
hsa-miR-1976 | SID160648740 | -0.88 | 0.74 | no change | no change | inactive
hsa-miR-513a-3p | SID160648451 | -0.36 | -0.66 | no change | no change | inactive
hsa-miR-1306 | SID160648703 | -1.21 | 3.87 | no change | no change | inactive
hsa-miR-548b-3p | SID160648231 | 0.66 | -0.8 | no change | no change | inactive
hsa-miR-423-5p | SID160648403 | -1.01 | 2.57 | no change | no change | inactive
hsa-let-7d | SID160647872 | -0.41 | 0.16 | no change | no change | inactive
hsa-miR-483-5p | SID160648414 | -0.36 | 3.25 | no change | no change | inactive
hsa-miR-621 | SID160648266 | 0.04 | 0.68 | no change | no change | inactive
hsa-miR-559 | SID160648202 | 1.11 | -0.74 | no change | no change | inactive
hsa-miR-30a* | SID160647895 | -0.34 | -0.47 | no change | no change | inactive
hsa-let-7b* | SID160648500 | -0.05 | 0.15 | no change | no change | inactive
hsa-miR-593* | SID160648238 | -0.18 | 0.88 | no change | no change | inactive
hsa-miR-486-5p | SID160648102 | -0.74 | 0.78 | no change | no change | inactive
hsa-miR-1229 | SID160648583 | 0.47 | -0.32 | no change | no change | inactive
hsa-miR-221 | SID160647951 | 1.72 | 1.38 | no change | no change | inactive
hsa-miR-28-5p | SID160647892 | -2.74 | -0.23 | no change | no change | inactive
hsa-miR-1283 | SID160648607 | 1.74 | -0.24 | no change | no change | inactive
hsa-miR-34c-3p | SID160648388 | 0.05 | -0.39 | no change | no change | inactive
hsa-miR-635 | SID160648281 | -0.08 | 1.16 | no change | no change | inactive
hsa-miR-634 | SID160648280 | -3.87 | 2.67 | reduced viability | no change | active
hsa-miR-578 | SID160648220 | 0 | 1.75 | no change | no change | inactive
hsa-miR-501-3p | SID160648470 | 2.02 | -0.26 | no change | no change | inactive
hsa-miR-92b | SID160648197 | 0.46 | -0.37 | no change | no change | inactive
hsa-miR-125b-1* | SID160648365 | 0.55 | 0.9 | no change | no change | inactive
hsa-miR-555 | SID160648198 | -1.95 | 3.68 | no change | no change | inactive
hsa-miR-29b | SID160647907 | -0.5 | -1.05 | no change | no change | inactive
hsa-miR-423-3p | SID160648074 | 0.23 | 0.57 | no change | no change | inactive
hsa-miR-518f* | SID160648140 | 1.05 | 1.09 | no change | no change | inactive
hsa-miR-520d-5p | SID160648153 | -0.14 | -0.19 | no change | no change | inactive
hsa-miR-1203 | SID160648620 | 0.72 | -0.57 | no change | no change | inactive
